Measurements: article doi:10.1101/2024.01.29.577840
Numbering of substitutions follows the chain as printed. No constants are given. Whether binding was seen depends on the method and setting. In cells and extracts the contact can be indirect. These calls come from enrichment with a bait or labelling near it, and not all partners need be listed. For some of these results: No binding means not detected with the bait. For some of these results: Tags and fused reporters may be left off the sequences shown.

Sequences of proteins named here, by UniProt entry; tags and fusion partners are left off.
UniProt P63208: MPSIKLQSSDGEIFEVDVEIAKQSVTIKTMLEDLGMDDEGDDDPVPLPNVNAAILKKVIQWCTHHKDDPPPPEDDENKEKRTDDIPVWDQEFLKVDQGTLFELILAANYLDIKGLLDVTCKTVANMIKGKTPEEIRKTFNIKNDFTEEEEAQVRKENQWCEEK

Assays:
Experiment in all cases: affinity purification with mass spectrometry
[1] = target: T1, 3xHA-3xFLAG-FBXL5 (human) (UniProt Q9UKA1)
T1 sequence: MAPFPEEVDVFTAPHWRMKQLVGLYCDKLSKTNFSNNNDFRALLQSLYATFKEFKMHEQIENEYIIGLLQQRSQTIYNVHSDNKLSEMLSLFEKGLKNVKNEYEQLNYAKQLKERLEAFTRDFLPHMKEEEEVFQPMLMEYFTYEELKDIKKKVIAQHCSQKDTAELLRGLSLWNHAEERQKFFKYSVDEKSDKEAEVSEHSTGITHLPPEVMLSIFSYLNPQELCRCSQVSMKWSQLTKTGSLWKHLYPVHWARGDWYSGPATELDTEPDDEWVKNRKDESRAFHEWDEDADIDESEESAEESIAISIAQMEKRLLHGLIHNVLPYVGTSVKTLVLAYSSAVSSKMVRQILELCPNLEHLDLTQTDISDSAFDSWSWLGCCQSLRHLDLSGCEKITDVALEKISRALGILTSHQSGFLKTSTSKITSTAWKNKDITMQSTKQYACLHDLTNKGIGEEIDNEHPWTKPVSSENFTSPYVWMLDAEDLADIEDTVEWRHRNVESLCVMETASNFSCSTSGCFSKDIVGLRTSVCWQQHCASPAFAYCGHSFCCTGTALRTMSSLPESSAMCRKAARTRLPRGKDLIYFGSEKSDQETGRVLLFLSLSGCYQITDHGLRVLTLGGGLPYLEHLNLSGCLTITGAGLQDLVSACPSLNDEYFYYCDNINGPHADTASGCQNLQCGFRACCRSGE

[2] = target: 3xHA-3xFLAG-FBXL5-ΔFbox (human) (UniProt Q9UKA1)
[3] = target: T2, 3xHA-3xFLAG-FBXL5-4C>S (human) (UniProt Q9UKA1)
T2 sequence: T1 sequence with C662S, C676S, C686S, C687S

SKP1 (endogenous) (from UniProt P63208 1-163)
binding [1]: binds

B1: IRP2 (endogenous) (protein, UniProt P48200 1-963)
chain: MDAPKAGYAFEYLIETLNDSSHKKFFDVSKLGTKYDVLPYSIRVLLEAAVRNCDGFLMKKEDVMNILDWKTKQSNVEVPFFPARVLLQDFTGIPAMVDFAAMREAVKTLGGDPEKVHPACPTDLTVDHSLQIDFSKCAIQNAPNPGGGDLQKAGKLSPLKVQPKKLPCRGQTTCRGSCDSGELGRNSGTFSSQIENTPILCPFHLQPVPEPETVLKNQEVEFGRNRERLQFFKWSSRVFKNVAVIPPGTGMAHQINLEYLSRVVFEEKDLLFPDSVVGTDSHITMVNGLGILGWGVGGIETEAVMLGLPVSLTLPEVVGCELTGSSNPFVTSIDVVLGITKHLRQVGVAGKFVEFFGSGVSQLSIVDRTTIANMCPEYGAILSFFPVDNVTLKHLEHTGFSKAKLESMETYLKAVKLFRNDQNSSGEPEYSQVIQINLNSIVPSVSGPKRPQDRVAVTDMKSDFQACLNEKVGFKGFQIAAEKQKDIVSIHYEGSEYKLSHGSVVIAAVISCTNNCNPSVMLAAGLLAKKAVEAGLRVKPYIRTSLSPGSGMVTHYLSSSGVLPYLSKLGFEIVGYGCSICVGNTAPLSDAVLNAVKQGDLVTCGILSGNKNFEGRLCDCVRANYLASPPLVVAYAIAGTVNIDFQTEPLGTDPTGKNIYLHDIWPSREEVHRVEEEHVILSMFKALKDKIEMGNKRWNSLEAPDSVLFPWDLKSTYIRCPSFFDKLTKEPIALQAIENAHVLLYLGDSVTTDHISPAGSIARNSAAAKYLTNRGLTPREFNSYGARRGNDAVMTRGTFANIKLFNKFIGKPAPKTIHFPSGQTLDVFEAAELYQKEGIPLIILAGKKYGSGNSRDWAAKGPYLLGVKAVLAESYEKIHKDHLIGIGIAPLQFLPGENADSLGLSGRETFSLTFPEELSPGITLNIQTSTGKVFSVIASFEDDVEITLYKHGGLLNFVARKFS
binding [1]: binds | binding [2]: binds | binding [3]: no binding
